# The campaign covered roughly 360,000 compounds. About 1,700 (0.47%) were called active. This list was built around the results that the source calls inconclusive (neither active nor inactive); the mix of calls is not that of the screen. Calls come from the whole dose curve; as a rule, active = well fitted inhibition curve with a large enough effect; inconclusive = small, poorly fitted or top-dose-only effect; inactive = no such curve, though single readings can be large or run the other way. Where the call is inconclusive, the potency comes from a doubtful curve fit.
# Sequences of proteins named here, by UniProt entry; tags and fusion partners are left off.
# UniProt Q14191, whole entry, looked up: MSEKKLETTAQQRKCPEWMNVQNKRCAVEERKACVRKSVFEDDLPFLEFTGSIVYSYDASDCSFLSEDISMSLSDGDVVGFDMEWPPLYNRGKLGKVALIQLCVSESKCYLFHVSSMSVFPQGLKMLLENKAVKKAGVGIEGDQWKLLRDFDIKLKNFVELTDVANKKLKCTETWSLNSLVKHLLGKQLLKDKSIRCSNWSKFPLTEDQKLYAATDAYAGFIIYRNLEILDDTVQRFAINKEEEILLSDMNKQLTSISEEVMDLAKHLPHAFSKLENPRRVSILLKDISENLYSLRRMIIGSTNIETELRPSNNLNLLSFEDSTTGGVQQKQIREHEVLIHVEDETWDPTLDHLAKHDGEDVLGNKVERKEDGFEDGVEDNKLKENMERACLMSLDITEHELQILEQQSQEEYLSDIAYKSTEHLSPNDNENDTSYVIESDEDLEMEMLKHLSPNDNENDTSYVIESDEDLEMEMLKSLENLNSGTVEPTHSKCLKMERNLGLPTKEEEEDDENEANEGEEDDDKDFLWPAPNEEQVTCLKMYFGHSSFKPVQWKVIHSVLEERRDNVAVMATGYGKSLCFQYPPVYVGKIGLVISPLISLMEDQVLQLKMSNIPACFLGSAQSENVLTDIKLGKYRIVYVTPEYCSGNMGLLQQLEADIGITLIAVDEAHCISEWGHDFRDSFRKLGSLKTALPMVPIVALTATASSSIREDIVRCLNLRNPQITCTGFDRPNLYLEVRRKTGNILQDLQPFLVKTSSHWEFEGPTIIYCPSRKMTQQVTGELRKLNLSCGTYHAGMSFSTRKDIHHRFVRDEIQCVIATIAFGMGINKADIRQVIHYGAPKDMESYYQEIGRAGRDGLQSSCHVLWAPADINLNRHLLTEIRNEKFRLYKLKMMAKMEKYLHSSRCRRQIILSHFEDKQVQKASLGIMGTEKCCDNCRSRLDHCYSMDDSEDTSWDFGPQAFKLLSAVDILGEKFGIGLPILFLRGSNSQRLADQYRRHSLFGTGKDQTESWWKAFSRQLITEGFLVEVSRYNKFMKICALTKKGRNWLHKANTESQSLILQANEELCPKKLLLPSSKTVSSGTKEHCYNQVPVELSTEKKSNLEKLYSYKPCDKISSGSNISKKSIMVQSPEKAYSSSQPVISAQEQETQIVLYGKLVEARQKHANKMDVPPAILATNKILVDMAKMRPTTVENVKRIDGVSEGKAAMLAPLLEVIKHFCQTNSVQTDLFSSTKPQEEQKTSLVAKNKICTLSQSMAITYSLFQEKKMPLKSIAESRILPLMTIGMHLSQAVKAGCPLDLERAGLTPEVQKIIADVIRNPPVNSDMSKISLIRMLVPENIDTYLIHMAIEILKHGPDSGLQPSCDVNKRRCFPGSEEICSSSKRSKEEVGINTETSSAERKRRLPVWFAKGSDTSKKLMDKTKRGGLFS
# Molecular target: Bifunctional 3'-5' exonuclease/ATP-dependent helicase WRN (Homo sapiens) (UniProt Q14191)
# Test: qHTS for Inhibitors of WRN Helicase; note: nearly all actives have a fitted effect of over 55% in size
# Settings: WRN helicase unwinding, fluorescent forked duplex, kinetic; activity change, negative = inhibition: at 114 µM (top of the series) unless noted
# Method in brief: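 Enzyme (20 nM final) and test compound sit together 15 min at room temperature before substrate addition. Substrate is a single-forked duplex oligonucleotide (100 nM) labelled with fluorophore and quencher, with 2 mM ATP; helicase unwinding raises red fluorescence, read kinetically.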
# % is set by controls: 0 for no effect and ±100 for the full control effect; potency is the fitted concentration of half-maximal effect.
SMILES,Potency,"activity change, negative = inhibition"
COC(=O)c1c(NC(=O)COC(=O)c2ccc(NC(=O)CC#N)cc2)sc2c1CCCCC2,active: 56.2 µM,
O=C(O)c1cccc(S(=O)(=O)Nc2ccccc2N2CCOCC2)c1,,inactive: -2.37%
COc1ccc(-n2c(O)c(/C=N/NS(=O)(=O)c3ccc(C)c([N+](=O)[O-])c3)c3ccccc3c2=O)cc1OC,"inconclusive: 10 µM [inhibitor, full curve, poor fit]",
CCOC(=O)c1cnc(SCC(=O)N2CCOCC2)nc1N,"inconclusive: 20 µM [inhibitor, single point]",
Cn1c(N)c(C(=O)COC(=O)c2cncc(Br)c2)c(=O)n(C)c1=O,"inconclusive: 70.8 µM [inhibitor, partial curve]",
COc1ccc(CC(=O)Nc2c3c(nn2C(C)(C)C)CS(=O)(=O)C3)cc1OC,"inconclusive: 79.4 µM [inhibitor, single point]",
COc1ccc(OC)c(/C=N/c2oc(-c3ccco3)c(-c3ccco3)c2C#N)c1,"inconclusive: 16.8 µM [inhibitor, partial curve]",
Cc1ccc(/C=N/NC(=O)c2cccs2)o1,"inconclusive: 28.2 µM [inhibitor, single point]",
CC1=NN(c2nc(-c3ccccc3)cs2)C(=O)C1,"inconclusive: 14.1 µM [inhibitor, full curve]",
CCN(CC)C(=O)CSC1=N/C(=C/c2ccco2)C(=O)N1c1ccc(OC)c(Cl)c1,,inactive: -23.5%
CCCCCCC(=O)N(O)C1CC(=O)N(c2ccc(F)cc2)C1=O (centres undefined),active: 28.2 µM,
Cc1cc(C)nc(N2C(=O)CC(Cc3ccc(Cl)cc3)C2=O)n1 (centres undefined),,inactive: 7.91%
CCOc1cc(/C=C\[N+](=O)[O-])ccc1OCC(=O)N1CCOCC1,,inactive: -31.4%
COc1ccc(NS(=O)(=O)c2cccc(C(=O)N/N=C(/C)c3ccc(-n4ccnc4)cc3)c2)cc1,"inconclusive: 35.5 µM [inhibitor, partial curve, poor fit]",
O=C1CCCC(O)=C1N=Nc1cccc(C(=O)O)c1,"inconclusive: 56.2 µM [inhibitor, partial curve]",
COc1ccc(N)c2c1C(=O)c1ccccc1C2=O,active: 20 µM,
O=C(CNCc1ccccc1)Nc1ccc(Oc2ccccc2)cc1,"inconclusive: 70.8 µM [inhibitor, single point]",
O=C(/C=C/c1ccccc1Cl)Nc1ccc2c(c1)C(=O)NC2=O,"inconclusive: 56.2 µM [inhibitor, partial curve]",
O=C(N/N=C/c1cn(-c2cccs2)nc1-c1ccccc1)c1ccccc1Br,"inconclusive: 35.5 µM [inhibitor, single point]",
CSc1nnc(-c2ccccc2N=Cc2c(C)[nH]n(-c3ccc4ccccc4c3)c2=O)c(=O)[nH]1,"inconclusive: 39.8 µM [inhibitor, partial curve]",
O=C(NN1C(=O)/C(=C/C=C/c2ccco2)SC1=S)c1ccccc1O,active: 10 µM,
CCSS(=O)(=O)c1cccc2cccnc12,active: 31.6 µM,
O=C(N/C=C/c1ccco1)OCc1ccccc1,,inactive: -4.34% [at 11.6 µM]
O=C(CSCc1ccco1)c1cccs1,"inconclusive: 50.1 µM [inhibitor, partial curve]",
CCN(c1ccc(N=Cc2c(O)n(Cc3ccc(OC)cc3)c(=O)c3ccccc23)cc1)C(C)C,active: 39.8 µM,

SMILES,Potency,"activity change, negative = inhibition"
Cc1cc(C)c(S(=O)(=O)/N=C2/C=C(SCC(=O)O)C(=O)c3ccccc32)cc1C,active: 17.8 µM,
COc1ccc(-c2cc(NC=O)c3ncc(-c4ccccc4)n3c2)cc1OC,"inconclusive: 35.5 µM [inhibitor, single point]",
O=C(COC(=O)c1cc(-c2ccc(Cl)s2)nc2ccccc12)NCc1ccco1,active: 35.5 µM,
O=C(NCCN1CCOC1=O)C1CCC(=O)N(CCc2ccc(Cl)cc2)C1 (centres undefined),"inconclusive: 89.1 µM [inhibitor, single point]",
O=C(c1cccnc1)N1CCN(Cc2cccc(F)c2)CC1,"inconclusive: 39.8 µM [inhibitor, partial curve]",
Cc1ccc(S(=O)(=O)N2CCN(C(C)CC(=O)O)CC2)cc1 (centres undefined),,inactive: 7.53%
O=C(O)/C(=C\c1cccc(C(F)(F)F)c1)c1ccc(S(=O)(=O)N2CCCC2)s1,,inactive: 0.542%
C=CCn1c(SCC(=O)c2ccc(O)c(O)c2)nnc1-c1cccnc1,active: 39.8 µM,
O=C(CCCSc1ccccc1)Nc1nc(-c2ccco2)c(-c2ccco2)s1,"inconclusive: 39.8 µM [inhibitor, single point]",
COC(=O)c1ccc(=O)n(Cc2ccc3c(c2)OCO3)c1,,inactive: -0.689%
O=C(Cc1cccs1)N=Nc1c(O)[nH]c2ccc(Br)cc12,"inconclusive: 31.6 µM [inhibitor, full curve]",
Cc1oc(/N=C/c2cccc3ccccc23)c(C#N)c1C,"inconclusive: 18.9 µM [inhibitor, partial curve]",
O=C(N/N=C/c1ccc(F)cc1)c1cc(-c2ccco2)nc2ccccc12,active: 39.8 µM,
CC1=NN2C(=N)/C(=C\c3ccc(SCc4ccccc4)o3)C(=O)N=C2S1,"inconclusive: 50.1 µM [inhibitor, partial curve]",
Cc1ccc(NC(=O)C2(c3ccccc3)CC2(Cl)Cl)cc1C (centres undefined),"inconclusive: 44.7 µM [inhibitor, full curve, poor fit]",
COC(CNC(=O)c1ccc2c3c(onc13)-c1ccccc1C2=O)OC,active: 50.1 µM,
CC(C)(C)C(=O)C(Cl)C(=O)Nc1ccccc1 (centres undefined),"inconclusive: 50.1 µM [inhibitor, partial curve]",
Cc1nc(SCC(=O)NCc2ccco2)nc(C)c1C,,inactive: 7.26%
Cc1nn(CC(=O)Nc2ccc3c(c2)OCO3)c(C)c1Cl,,inactive: -1.37%
N=C1/C(=C\c2coc3ccccc3c2=O)C(=O)N=C2SC(c3ccncc3)=NN12,active: 22.4 µM,
O=C(O)c1ccccc1NS(=O)(=O)c1ccc(N/N=C/c2cccc(O)c2O)c([N+](=O)[O-])c1,active: 20 µM,
Cc1ccc(NC(=O)CSc2nnc(-c3ccco3)c(-c3ccco3)n2)cc1,active: 39.8 µM,
O=[N+]([O-])c1c(Nc2ccc(O)cc2)cc(Cl)c2nonc12,"inconclusive: 2.67 µM [inhibitor, partial curve]",
CN(C)c1ccc(/C=N/N(CCC#N)C2=NS(=O)(=O)c3ccccc32)cc1,"inconclusive: 56.2 µM [inhibitor, partial curve]",
O=[N+]([O-])c1ccc(Cl)c2c1C1C=CCC1C(c1ccccn1)N2 (centres undefined),"inconclusive: 17.8 µM [inhibitor, full curve]",

SMILES,Potency,"activity change, negative = inhibition"
CC(C)(C(=O)O)n1cncn1,"inconclusive: 56.2 µM [inhibitor, single point]",
COc1ccc(CNC(=O)CC(C)S(=O)(=O)c2ccc3c(c2)NC(=O)CO3)cc1 (centres undefined),,inactive: -9.07%
COc1ccc(CNCCNC(=O)c2nonc2N)cc1OC,,inactive: -2.78%
O=C(CSCc1c(F)cccc1Cl)NCc1ccco1,"inconclusive: 100 µM [inhibitor, single point]",
O=[N+]([O-])c1cc(/C=N/n2c(-c3cccnc3)n[nH]c2=S)ccc1Cl,"inconclusive: 50.1 µM [inhibitor, partial curve]",
CCOC(=O)C1=C(c2ccccc2)NC(=O)NC1c1cccc(OC)c1OC (centres undefined),"inconclusive: 3.98 µM [inhibitor, full curve, poor fit]",
Cc1cc(NC(=O)CSc2nccn2-c2cccc(C)c2C)no1,"inconclusive: 89.1 µM [inhibitor, single point]",
O=C1/C(=C/C=C/c2ccco2)SC(=S)N1NS(=O)(=O)c1ccccc1,active: 8.91 µM,
CCc1ccc(N=C2NC(=O)/C(=C/c3cc(Br)c(OCC(=O)O)c(OC)c3)S2)cc1,"inconclusive: 1.5 µM [inhibitor, partial curve]",
O=C(O)Cc1ccc(N=Nc2c(O)c(C(=O)O)cc3ccccc23)cc1,active: 25.1 µM,
COC(=O)C1C(=O)NC(SC)=C(C#N)C1c1ccccc1 (centres undefined),,inactive: 2.23%
COCC(=O)Nc1cc(C)cn(Cc2c(F)cccc2Cl)c1=O,"inconclusive: 89.1 µM [inhibitor, single point]",
CCOC(=O)[C@H](C)N1[C@H](C)[C@H](c2ccccc2)Oc2ccc(Cl)cc2S1(=O)=O,,inactive: -5.72%
Cc1cc(C)c(C)c(S(=O)(=O)Nc2cccc(S(=O)(=O)Nc3ccccc3C(=O)O)c2)c1C,"inconclusive: 35.5 µM [inhibitor, full curve]",
CC(=O)c1cccc(OCC(O)CN2CCN(S(=O)(=O)c3c(F)cccc3F)CC2)c1 (centres undefined),,inactive: -3.63%
O=C(NN1CCOCC1)NC12CC3CC(CC(C3)C1)C2,"inconclusive: 3.55 µM [inhibitor, full curve, poor fit]",
COc1cc(/C=N/n2c(C3CCCCC3)n[nH]c2=S)cc(Br)c1O,,inactive: -0.851%
CCOC(=O)c1c(S(=O)(=O)NCC(=O)Nc2ccc(F)cc2F)c(C)n(C)c1C,,inactive: -6.61%
COc1cc(/C=N/N=C/c2cc(OC)c(O)c(OC)c2)cc(OC)c1O,"inconclusive: 39.8 µM [inhibitor, partial curve]",
COC(=O)CCC(=O)N(CCN(C(=O)CCC(=O)OC)c1ccccc1)c1ccccc1,,inactive: -23.3%
O=C(COc1ccccc1)NCCSCc1ccco1,,inactive: -32.6% [at 57.1 µM]
O=C(Nc1nnc(CCc2ccccc2)s1)c1ccccc1F,,inactive: -13.3%
CCCCCCC1CC(CC(=O)Nc2ccc([N+](=O)[O-])cc2)C(=O)O1 (centres undefined),"inconclusive: 10 µM [inhibitor, partial curve]",
COc1ccccc1NC(=O)c1cnc(SCC(=O)NCC2CCCO2)n(C)c1=O (centres undefined),"inconclusive: 35.5 µM [inhibitor, full curve, poor fit]",

# Entries listed so far containing a cyano group:
SMILES,Potency,"activity change, negative = inhibition"
COC(=O)c1c(NC(=O)COC(=O)c2ccc(NC(=O)CC#N)cc2)sc2c1CCCCC2,active: 56.2 µM,
COc1ccc(OC)c(/C=N/c2oc(-c3ccco3)c(-c3ccco3)c2C#N)c1,"inconclusive: 16.8 µM [inhibitor, partial curve]",
Cc1oc(/N=C/c2cccc3ccccc23)c(C#N)c1C,"inconclusive: 18.9 µM [inhibitor, partial curve]",
CN(C)c1ccc(/C=N/N(CCC#N)C2=NS(=O)(=O)c3ccccc32)cc1,"inconclusive: 56.2 µM [inhibitor, partial curve]",
COC(=O)C1C(=O)NC(SC)=C(C#N)C1c1ccccc1 (centres undefined),,inactive: 2.23%
